For the data set, the target named is T1, Serum response factor (SRF) (Mus musculus) (UniProt Q9JM73).
T1 sequence (looked up, limits assumed): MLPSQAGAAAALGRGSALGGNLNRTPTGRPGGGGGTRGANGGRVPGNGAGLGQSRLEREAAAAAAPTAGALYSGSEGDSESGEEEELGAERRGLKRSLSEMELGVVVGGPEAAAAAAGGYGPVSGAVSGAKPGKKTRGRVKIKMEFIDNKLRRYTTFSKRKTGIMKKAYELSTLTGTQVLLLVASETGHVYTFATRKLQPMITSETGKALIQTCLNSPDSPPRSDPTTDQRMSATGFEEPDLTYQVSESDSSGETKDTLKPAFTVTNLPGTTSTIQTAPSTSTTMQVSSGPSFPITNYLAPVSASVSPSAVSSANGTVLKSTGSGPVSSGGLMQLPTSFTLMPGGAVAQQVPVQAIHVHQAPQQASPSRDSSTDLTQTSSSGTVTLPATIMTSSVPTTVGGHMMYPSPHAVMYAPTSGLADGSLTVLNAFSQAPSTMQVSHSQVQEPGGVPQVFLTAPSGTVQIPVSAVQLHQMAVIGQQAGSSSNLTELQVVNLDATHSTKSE
Briefly: EMSA. To be noted: One of the new complexes in differentiated Monc-1 nuclear extract contained SRF (supershift); 250x competitor; 25 mM Hepes pH 7.9, 40 mM KCl, 3 mM MgCl2, room temperature; protein in an extract; label: 32P. On the technique in general: Mobility shift assays separate free from complexed probe on a gel.

The source of these data is US20070065829.

Results from cells or extracts need not show a direct contact. Protein sequences can lack the tags named with them.

On to “TCGAGACTTGGTGTCTTTCCCCAAATATGGAGCCTGTGTGGAGTG (double strand) [SM22alpha promoter CArG element probe]”, for which the binding result is “binds”.
